Among the data in article PMC7246916, “14-3-3 Proteins and Other Candidates form Protein-Protein Interactions with the Cytosolic C-terminal End of SOS1 Affecting Its Transport Activity” (International Journal of Molecular Sciences, 2020) are binding values, retold here.

The assay addresses T1, native SOS1 peptide spots with the sequence …1138KIVFRNDL (Arabidopsis thaliana).
T1 sequence (peptide): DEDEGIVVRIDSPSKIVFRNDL
The experiment in a line: peptide or protein array; 15-mer synthetic peptides of SOS1 from amino acid 446, overlapping by 12, spotted on a cellulose membrane; incubated with recombinant 10xHis-14-3-3ω; anti-His antibody, HRP-coupled anti-mouse antibody, ECL; both purified.

Results are given in words; binding and its absence hold for the method and conditions named. Where a sequence is shown, tags or fusion partners need not be part of it.

B1: recombinant (10xHis)-labelled At14-3-3ω (protein, UniProt Q01525 1-259)
chain: MASGREEFVYMAKLAEQAERYEEMVEFMEKVSAAVDGDELTVEERNLLSVAYKNVIGARRASWRIISSIEQKEESRGNDDHVTAIREYRSKIETELSGICDGILKLLDSRLIPAAASGDSKVFYLKMKGDYHRYLAEFKTGQERKDAAEHTLAAYKSAQDIANAELAPTHPIRLGLALNFSVFYYEILNSPDRACNLAKQAFDEAIAELDTLGEESYKDSTLIMQLLRDNLTLWTSDMQDDAADEIKEAAAPKPTEEQQ
For the molecule B1, the binding result is listed as “no binding”.
